According to PubChem BioAssay AID504834 (National Center for Advancing Translational Sciences (NCATS), 2011):
Among all 320,000 compounds or so, about 22,000 (6.9%) were called active. The shares of active, inactive and inconclusive entries below differ from those in the screen. Calls follow the shape of the dose curve; as a rule, active = well fitted inhibition curve with a large enough effect; inconclusive = small, poorly fitted or top-dose-only effect, or another doubt; inactive = no such curve, though single readings can be large or run the other way. A potency beside an inconclusive call is a rough fit, not a confirmed value.

Assay: Primary qHTS for delayed death inhibitors of the malarial parasite plastid, 96 hour incubation
Details: P. falciparum luciferase reporter growth; series mostly up to 28.7 µM
Procedure, shortened: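 Two-generation exposure (96 h) targets delayed-death phenotype. Reporter parasites carrying integrated firefly luciferase, in red cells at 2% hematocrit and 0.05% parasitemia final, kept at 37 C, 5% CO2; luminescence loss indicates inhibition.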
Potency is read from the fitted curve at half-maximal effect.

Compound | Potency
C[C@@]12CCC[C@@](C)(C(=O)O)C1CC[C@@]13C[C@@H](NCc4ccccc4)[C@@](C)(CCC12)C3 (stereo not given in full) | inconclusive: 11.7 µM [inhibitor, single point]
CCOC(=O)C1(CCCc2ccccc2)CCN(C(=O)CSC)CC1 | inconclusive: 14.7 µM [inhibitor, single point]
O=C1C2C3C=CC(C3)C2C(=O)N1c1ccc2ccccc2c1 (stereo not given) | inconclusive: 10.4 µM [inhibitor, partial curve]
COc1cccc(CN2CCNC(=O)C2CC(=O)NCCc2cccc(C)n2)c1OC (stereo not given) | inconclusive: 2.08 µM [inhibitor, full curve]
CCCNC(=O)C(Cc1ccc(Cl)cc1)NC(=O)c1ccc(C#N)cc1 (stereo not given) | inactive
CCCC(C)C1(CC)C(=O)NC(=Nc2ccc(OC)cc2)NC1=O (stereo not given) | inconclusive: 14.7 µM [inhibitor, partial curve, poor fit]
O=[N+]([O-])c1ccc2c(c1)nc1n2CCN(c2ccccc2)C1 | inconclusive: 9.28 µM [inhibitor, single point]
O=C(Nn1c(-c2ccccc2)nc2ccccc2c1=O)c1cccs1 | inactive
Cc1ccc(C(=O)N2CCC3(CC2)Oc2ccc(F)cc2C(=O)C32CC(c3ccccc3)=NO2)s1 (stereo not given) | active: 10.4 µM
CN(C(=O)C1CCC(=O)N(CCCN2CCCC2=O)C1)C(C1CC1)C1CC1 (stereo not given) | inactive
Nn1c(=O)c2ccccc2n2c(SCc3ccc(C(F)(F)F)cc3)nnc12 | inconclusive: 1.17 µM [inhibitor, partial curve]
COc1ccc(OC)c(S(=O)(=O)ON2C(=O)c3ccccc3C2=O)c1 | active: 2.94 µM
CC1CC(C)(C)NC(=S)N1CCC(=O)Nc1ccc2c(c1)OCCO2 (stereo not given) | active: 1.47 µM
O=C(c1ccccc1)N1N=C(c2ccccc2)CC1c1cccs1 (stereo not given) | inconclusive: 18.5 µM [inhibitor, single point]
O=C(OCc1ccccc1F)c1cnc(Cl)c(Cl)c1 | inactive
CCn1cc([N+](=O)[O-])c(C(=O)N2N=C(c3ccc4ccccc4c3)CC2c2cc(Br)ccc2O)n1 (stereo not given) | inconclusive: 4.15 µM [inhibitor, full curve, poor fit]
Cc1nnc(SCC(=O)Nc2cccc(C(F)(F)F)c2)n1Cc1ccco1 | inconclusive: 13.1 µM [inhibitor, single point]
O=C(c1ccccc1)N1N=C(c2ccccc2)CC1(O)C(F)(F)F (stereo not given) | inconclusive: 14.7 µM [inhibitor, partial curve, poor fit]
CN(C)c1nc(Cl)cc(N2CCOCC2)n1 | inconclusive: 18.5 µM [inhibitor, single point]
CCOCCCNC(=O)c1cc2c(=O)[nH]c3ccccc3c2s1 | inactive
CCC(C)NCCOc1cc(C)cc(C)c1C (stereo not given) | inactive
COc1cc(/C=N/N2C(=O)C3C4C=CC(CC4)C3C2=O)ccc1O (stereo not given) | inconclusive: 4.15 µM [inhibitor, partial curve, poor fit]
COCCCNc1nc2c(-c3ccc(Cl)cc3)nnn2c2ccccc12 | active: 11.7 µM
CCOC(=O)c1ccc(-c2c(-c3ccc4c(c3)OCO4)noc2-c2ccsc2)cc1F | inconclusive: 9.28 µM [inhibitor, partial curve, poor fit]

3 compounds picked at random from those above:
Compound | Potency
CCOCCCNC(=O)c1cc2c(=O)[nH]c3ccccc3c2s1 | inactive
CCOC(=O)C1(CCCc2ccccc2)CCN(C(=O)CSC)CC1 | inconclusive: 14.7 µM [inhibitor, single point]
CCOC(=O)c1ccc(-c2c(-c3ccc4c(c3)OCO4)noc2-c2ccsc2)cc1F | inconclusive: 9.28 µM [inhibitor, partial curve, poor fit]

Next compounds:

Compound | Potency
COc1ccc(-c2nnn(Cc3ccccc3)n2)cc1OC | inactive
COc1ccc(OCC(=O)NCCS(=O)(=O)N2CCN(c3ccc(F)cc3)CC2)cc1 | inconclusive: 18.5 µM [inhibitor, single point]
O=C(COc1ccc(F)c(Cl)c1)c1ccc[nH]1 | inconclusive: 11.7 µM [inhibitor, partial curve, poor fit]
CCCn1nc(NC(=O)COC)c2cc3cc(C)ccc3nc21 | inactive
CC(=O)c1ccc(NC(=O)N2CCCC(C(=O)c3ccc4c(c3)OCO4)C2)cc1 (stereo not given) | inconclusive: 14.7 µM [inhibitor, partial curve]
COc1ccc(-c2ccc(CCC(=O)O)n2NC(=O)c2cccs2)cc1 | inactive
Cc1ccc(NC(=O)CN(C)C(=O)CSc2ccc3c(c2)OCCO3)cc1 | inactive
CCc1cccc(C)c1NC(=O)CCCC(=O)O | inconclusive: 9.28 µM [inhibitor, partial curve, poor fit]
CN(Cc1ccccc1F)C(=O)CNC(=O)Cc1cccc2ccccc12 | inconclusive: 11.7 µM [inhibitor, partial curve]
NC(C(=O)O)c1ccc(O)cc1 (stereo not given) | inactive
O=C(Nc1ccnn1C1CCN(Cc2ccccc2OCCO)CC1)c1cccc(F)c1 | inconclusive: 18.5 µM [inhibitor, single point]
COc1cc(CNCCc2ccccc2)cc(Cl)c1OCc1ccccc1 | inactive
CC(=O)Nc1cccc(NC(=O)CSc2nnnn2C(C)C)c1 | inconclusive: 0.0657 µM [inhibitor, full curve, poor fit]
O=C(Nc1ccnn1C1CCN(Cc2ccccc2OC(F)F)CC1)c1cccnc1 | inconclusive: 10.4 µM [inhibitor, single point]
O=C(O)C1CCN(C(=O)CCN2C(=O)S/C(=C\c3ccccc3)C2=O)CC1 | inactive
COCC(=O)Nc1cc(C)cn(Cc2ccccc2Cl)c1=O | active: 0.0828 µM
O=C1c2cccc3cccc(c23)C(=O)N1OS(=O)(=O)c1ccccc1 | inactive
Cc1ccccc1OCCCSc1nc2ccccc2[nH]1 | active: 10.4 µM
COc1cccc(C2(CSc3nnc(-c4cc(OC)c(OC)c(OC)c4)o3)OCCO2)c1 | inconclusive: 18.5 µM [inhibitor, single point]
CCN(CC)S(=O)(=O)c1cccc(C(=O)N/N=C/c2c(C)nn(-c3ccccc3)c2Cl)c1 | inactive
Cc1ccc(-c2csc(SCC(=O)c3c(N)n(C4CC4)c(=O)[nH]c3=O)n2)cc1 | inactive
COc1cccc(C(=O)Nc2ccc(-c3nnc(-c4ccco4)o3)cc2)c1 | inconclusive: 5.22 µM [inhibitor, partial curve]
CSc1nc(NCCCN(C)C)c2c3c(sc2n1)CN(C)CC3 | inconclusive: 16.5 µM [inhibitor, partial curve, poor fit]
Nc1nc(SCC(=O)N2N=C(c3ccc(Cl)cc3)CC2c2ccco2)n[nH]1 (stereo not given) | inconclusive: 0.0928 µM [inhibitor, full curve, poor fit]

Compound | Potency
COc1ccc(NC(=S)N/N=C/c2cccn2Cc2ccc(F)cc2Cl)cc1 | inconclusive: 2.62 µM [inhibitor, full curve, poor fit]
O=C(NC(=S)Nc1ccc(S(=O)(=O)Nc2ncccn2)cc1)c1ccc(Br)cc1 | inactive
CCc1cccc(NC(=O)NC(=O)Cn2nnc(C(=O)OC)c2C(=O)OC)c1 | inconclusive: 18.5 µM [inhibitor, single point]
CC(C)(C)NC(=O)CN(C(=O)CS(=O)CC(=O)Nc1ccc(F)cc1)c1cccc(F)c1 (stereo not given) | inactive
O=C(O)c1ccc(/C=N/NC(=O)C2CC2(c2ccccc2)c2ccccc2)cc1 (stereo not given) | inconclusive: 18.5 µM [inhibitor, single point]
CCOc1ccc(NC(=O)C(=O)NCCN2CCN(C(=O)c3ccc(C)cc3)CC2)cc1 | inconclusive: 10.4 µM [inhibitor, partial curve, poor fit]
O=C(CSc1nnc(CSc2nc3ccccc3s2)o1)NC1CCCCC1 | inactive
C=CCN(c1ccccc1)S(=O)(=O)c1cccc(C(=O)NCC(c2ccc(F)cc2)N2CCOCC2)c1 (stereo not given) | inconclusive: 10.4 µM [inhibitor, single point]
Cc1cccc(NC(NC(=O)Cc2ccccc2)C(Cl)(Cl)Cl)c1 (stereo not given) | inconclusive: 18.5 µM [inhibitor, single point]
N#CC1=C(SCC(N)=O)NC(=O)CC1c1ccccc1Cl (stereo not given) | inconclusive: 10.4 µM [inhibitor, single point]
COc1ccc(S(=O)(=O)NCCCN2CCOCC2)cc1F | inconclusive: 18.5 µM [inhibitor, single point]
CC(C)=CCN1CCN(Cc2ccc(C#CC(C)(C)O)cc2)CC1CCO (stereo not given) | inconclusive: 9.28 µM [inhibitor, partial curve]
CCOc1ccc(N(CC(=O)N2CCN(c3ccc(F)cc3)CC2)S(=O)(=O)c2c(C)noc2C)cc1 | inconclusive: 20.8 µM [inhibitor, single point]
Cc1nn(CC(=O)Nc2sc3c(c2C#N)CCC(C(C)(C)C)C3)c(C)c1[N+](=O)[O-] (stereo not given) | inactive
Cc1ccc(Oc2ccccc2)c(NC=O)c1 | inactive
COc1ccc(C2(c3ccc(OC)cc3)NC(=O)N(CC(=O)Nc3ccc(C(N)=O)cc3)C2=O)cc1 | inconclusive: 20.8 µM [inhibitor, partial curve, poor fit]
CN(Cc1cccc(F)c1)C(=O)CNS(=O)(=O)c1ccc2ccccc2c1 | inactive
CC(C)c1ccccc1OCC(=O)NCC(c1cccs1)N1CCOCC1 (stereo not given) | inconclusive: 11.7 µM [inhibitor, partial curve]
COc1ccc(C(=O)Nc2ccc3c(c2)OCCO3)cc1[N+](=O)[O-] | inconclusive: 10.4 µM [inhibitor, single point]
Cc1ccc(-n2c(SCC(=O)N3CCN(c4ccccn4)CC3)nnc2N2CCCC2)cc1 | active: 8.28 µM
COc1ccccc1N1CCN(c2nc3ccccn3c(=O)c2C=O)CC1 | inconclusive: 11.7 µM [inhibitor, partial curve, poor fit]
Cc1ccc(NC(=S)N(CCN(C)C)C(C)c2cccnc2)cc1 (stereo not given) | inconclusive: 13.1 µM [inhibitor, partial curve, poor fit]

Look-ups from the results shown:
COc1ccc(C(=O)Nc2ccc3c(c2)OCCO3)cc1[N+](=O)[O-] – Potency: inconclusive: 10.4 µM [inhibitor, single point]
Cc1ccc(-n2c(SCC(=O)N3CCN(c4ccccn4)CC3)nnc2N2CCCC2)cc1 – Potency: active: 8.28 µM
